Laboratory results reported in patent US20200299395A1 (MOGAM INSTITUTE FOR BIOMEDICAL RESEARCH, published 2020).
These are yes or no findings as the source states them, for the method shown. Some entries that bind do so weakly or less than the wild type.

Protein sequences, listed by entry. Tags and fused reporters are not part of them. Residues count along the entry.
UniProt Q02223, residues 1-54: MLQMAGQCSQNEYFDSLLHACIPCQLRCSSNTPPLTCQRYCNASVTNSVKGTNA

Molecular target: human BCMA (BCMA antigen coated on the ELISA plate) (human) (UniProt Q02223)
Experiment: ELISA, E. coli supernatant on BCMA-coated plate

Binder	binding
Clone MN19 (VH domain) (VHH) VHH: EVQLVESGGGLVQPGGSLRLSCAASGFTFTTYYMGWVRQAPGKGPEWVSLISGDGSNTWYDDSVKGRFTISRDNSKNTLYLQMNSLRAEDTAVYYCARYDCLSPASYDYWGQGTLVTVSS	binds
Clone MN10 (VH domain) (VHH) VHH: EVQLVESGGGLVQPGGSLRLSCAASGFTFSSYAMGWVRQAPGKGPEVVSLISGSGGSTWYDDSVKGRFTISRDNSKNTLYLQMNSLRAEDTAVYYCASYLRPRTEAHNTWGQGTLVTVSS	binds
Clone MN2 (VH domain) (VHH) VHH: EVQLVESGGGLVQPGGSLRLSCAASGFTFTNYDMGWVRQAPGKGPEWVSLISGGSETWYDDSVKGRFTISRDNSKNTLYLQMNSLRAEDTAVYYCAKMETSHTNDTDYWGQGTLVTVSS	binds
Clone MN5 (VH domain) (VHH, Single-domain antibody: a VH domain from a synthetic phage library, not camelid; Expressed in E. coli) VHH: EVQLVESGGGLVQPGGSLRLSCAASGFTFSSYAMGWVRQAPGKGPEVVSLISGSGGSTWYDDSVKGRFTISRDNSKNTLYLQMNSLRAEDTAVYYCASREDNMTTWGQGTLVTVSS	binds
Clone MN7 (VH domain) (VHH, Single-domain antibody: a VH domain from a synthetic phage library, not camelid; Expressed in E. coli) VHH: EVQLVESGGGLVQPGGSLRLSCAASGFTFSSYAMGWVRQAPGKGPEVVSLISGSGGSTWYDDSVKGRFTISRDNSKNTLYLQMNSLRAEDTAVYYCASPEDMYQTWGQGTLVTVSS	binds
Clone MN8 (VH domain) (VHH, Single-domain antibody: a VH domain from a synthetic phage library, not camelid; Expressed in E. coli) VHH: EVQLVESGGGLVQPGGSLRLSCAASGFTFSSYAMGWVRQAPGKGPEVVSLISGSGGSTWYDDSVKGRFTISRDNSKNTLYLQMNSLRAEDTAVYYCASPEDAPSYSRWGQGTLVTVSS	binds
Clone MN1 (VH domain) (VHH, Single-domain antibody: a VH domain from a synthetic phage library, not camelid; Expressed in E. coli) VHH: EVQLVESGGGLVQPGGSLRLSCAASGFTFTAYDMGWVRQAPGKGPEWVSLISSDSGDTWYDDSVKGRFTISRDNSKNTLYLQMNSLRAEDTAVYYCARLGAYSTTYDYWGQGTLVTVSS	binds
